The list shows a part of the results.

Amino acid sequences for entries named in this document (tags omitted).
UniProt Q0JBA9, entry or part of it: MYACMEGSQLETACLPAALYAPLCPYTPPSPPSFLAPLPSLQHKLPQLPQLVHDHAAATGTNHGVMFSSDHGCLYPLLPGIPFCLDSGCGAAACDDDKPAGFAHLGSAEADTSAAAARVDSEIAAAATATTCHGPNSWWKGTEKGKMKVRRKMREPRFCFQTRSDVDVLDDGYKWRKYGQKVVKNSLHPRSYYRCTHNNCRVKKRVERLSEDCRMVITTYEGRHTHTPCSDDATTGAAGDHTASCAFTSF

For this assay, the target named is OsWRKY34 (Oryza sativa, UniProt Q0JBA9 1-250). In words: protein-binding microarray (RPBM); PBS, 2% BSA, 51.3 ng/ul salmon testes DNA, 50 uM zinc acetate, 200 nM TF, 25 C, 1 h; high values mean tight binding. To be noted: protein: recombinant; tags: N-terminal polyhistidine and DsRed monomer fusion (pET32a); label: CyDye5-dUTP incorporated in the synthesized complementary strand; 3' TTTTT single-stranded linker to array surface; dsDNA, one strand shown. The essentials: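 In PBS with 2% BSA, salmon testes DNA and 50 µM zinc acetate, 200 nM protein was incubated on a custom Agilent array at 25 °C for 1 h and then washed off. The array had been made double-stranded by primer extension with Cy5-dUTP and blocked with 2% BSA. The proteins were transcription factors fused N-terminally to polyhistidine and DsRed, expressed in E. coli BL21-CodonPlus and purified on Ni–NTA. The binding signal is per-feature fluorescence intensity (arbitrary units) from an Axon 4000B scanner.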
Regarding “AGCATTCAGATTTTTCAGTATGATATATCACTACCTAGCTCGGAGTCACCTAGTGCAG”, the binding signal was 8060 fluorescence intensity (a.u.). Consider “GAATTCATCGTCTTCTCCTTTTGGTACTTAGCTGTTAATACGGAGTCACCTAGTGCAG”, for which the binding signal is 8980 fluorescence intensity (a.u.). Next, “AGAGCTGCTTGCGCACTAAAACTGGGGCATCTCTATCAACCGGAGTCACCTAGTGCAG”: 8380 fluorescence intensity (a.u.); “GGTGGCCATTTCTATCCAGGTTTCTCCATCACGCCGCCGCCGGAGTCACCTAGTGCAG”: 12000 fluorescence intensity (a.u.); “AGGTCATCATTTTGTGTTTCACACCCAGCGCCTCAATTTGCGGAGTCACCTAGTGCAG”: 11800 fluorescence intensity (a.u.). For the sequence “ATGTATGACGCCGTTGACTTTTCGACCAACGTTTATTCGTCGGAGTCACCTAGTGCAG”, the binding signal was 30200 fluorescence intensity (a.u.). Next, “TTCTAACTTTTCCGTTATATCGTTCCAATTTCAATCAAACCGGAGTCACCTAGTGCAG”: 9440 fluorescence intensity (a.u.); “GGGGTGGTGGCGGATGAGTCGAACATGGAAGGATCCGAGCCGGAGTCACCTAGTGCAG”: 10800 fluorescence intensity (a.u.); “TACATCGTCCGTGTCTCGTGTTTCTTCCTGGCACGCGATCCGGAGTCACCTAGTGCAG”: 8840 fluorescence intensity (a.u.). Turning to “TTTACCATCTACTACACGGTTTTTATTTCGTCATATATTCCGGAGTCACCTAGTGCAG”, the binding signal was 13300 fluorescence intensity (a.u.). Next, “TAGAGAATTTACCATCAAATTCATGTGCCTCAACTTTTTTCGGAGTCACCTAGTGCAG”: 8700 fluorescence intensity (a.u.); “GTGGGGTGGTAAAAAAGAAAAACCGGGAGGAGAAGGCGGTCGGAGTCACCTAGTGCAG”: 9880 fluorescence intensity (a.u.); “TCATCGTGCTCTTCATCACCTTCACCCATCCTGGCTTAGTCGGAGTCACCTAGTGCAG”: 14000 fluorescence intensity (a.u.). Turning to “CACACACTTCCTTCCATCATTGTCACCTACTTTTTTAATACGGAGTCACCTAGTGCAG”, the binding signal was 8280 fluorescence intensity (a.u.).

In the case of “GAAAGAATCCTTTCATCCTTTTGTACTGTCTACCTACTGGCGGAGTCACCTAGTGCAG”, the binding signal was 8610 fluorescence intensity (a.u.). Regarding “TCTTCCTGCCTGCCTACTCTCTCCTTGTTGTCCATGGCTCCGGAGTCACCTAGTGCAG”, the binding signal was 8620 fluorescence intensity (a.u.). As for “AACAACTACTCAAGCCATTTCAAGTGCAACCATTCCTGTCCGGAGTCACCTAGTGCAG”, the binding signal was 8050 fluorescence intensity (a.u.). For “ATCTGCCACTGTGTGTTTGTAGCTACCTATAACATGTTATCGGAGTCACCTAGTGCAG”, the binding signal is 9020 fluorescence intensity (a.u.). “GCGCCTCGAATCCCCGCCTGGTCGTCTCTCCCCTCTCCCTCGGAGTCACCTAGTGCAG”: the binding signal is 8530 fluorescence intensity (a.u.). For the sequence “ATTAGTTATTAAAAGTACTTTTATGTAGCATATGTGTTTTCGGAGTCACCTAGTGCAG”, the binding signal is 10400 fluorescence intensity (a.u.). The same measure for “CGTTCAAACAAACTATGTTTGTATCAGAGTTCACCTCTTCCGGAGTCACCTAGTGCAG”: 8710 fluorescence intensity (a.u.); for “TTGGGGTTTTTGTCGTAGAATCTCTCCTTCTCTTCATGATCGGAGTCACCTAGTGCAG”: 9370 fluorescence intensity (a.u.); for “TTGTCGGGGTCTGGTGGCGGTGGCAGGCAAGGTGCCAGTGCGGAGTCACCTAGTGCAG”: 9000 fluorescence intensity (a.u.). The same measure for “GTTGCACTCAAACGTGGTACCTACCTACCAAGTTGTTGTACGGAGTCACCTAGTGCAG”: 8270 fluorescence intensity (a.u.). Next, “AGTTCAACTGCGATCTGCTGCCTTTTCCTATTCGATCCCACGGAGTCACCTAGTGCAG”: 8260 fluorescence intensity (a.u.); “CTTACTTGCGATTATCCAGGAGACTTGGCATTCGTATACTCGGAGTCACCTAGTGCAG”: 8380 fluorescence intensity (a.u.); “CCAAGAGAGACCATCATCTGCTAGCTTAGAACTCCTATATCGGAGTCACCTAGTGCAG”: 13700 fluorescence intensity (a.u.). Regarding “CCACCAGGCCGCCACTCCGAGTCCGACACGACCCATCATACGGAGTCACCTAGTGCAG”, the binding signal was 9600 fluorescence intensity (a.u.). Next, “TAATATATCTCCATTTGTCGACAACCCTCGTACGCGTCCGCGGAGTCACCTAGTGCAG”: 8610 fluorescence intensity (a.u.).

Turning to “GAATTGCACTTTAGACCATCTTTTATTACCTTAATTTTACCGGAGTCACCTAGTGCAG”, the binding signal is 10800 fluorescence intensity (a.u.). For the sequence “TCTTCTTTATCTCCTTCACTGAATTCTCATGCATACACATCGGAGTCACCTAGTGCAG”, the binding signal is 8670 fluorescence intensity (a.u.).

Consider “TGCATATAATACTACGAGTCTAAACTTTTGACTGTCCTATCGGAGTCACCTAGTGCAG”, for which the binding signal is 8030 fluorescence intensity (a.u.). Next, “TCCTTGTTGCAGAGTGTATGTGCCTTCCAATTTTCCATATCGGAGTCACCTAGTGCAG”: 10100 fluorescence intensity (a.u.). As for “TATAGGACAGAGGGAGGACCTCTTACCTCCGCGTTGTTGTCGGAGTCACCTAGTGCAG”, the binding signal was 8120 fluorescence intensity (a.u.). Regarding “CCACGGCCGCCCACCTGTTCCTCGGTTGCCAATAGCACTCCGGAGTCACCTAGTGCAG”, the binding signal is 11200 fluorescence intensity (a.u.). In the case of “GTGCCATCCTGATTTGTCCCTCCCTGTCGCCTCACTGTTTCGGAGTCACCTAGTGCAG”, the binding signal was 10700 fluorescence intensity (a.u.). Regarding “ACAGCTTTTACTACTCCGACATTTTCCTCCACAATATACACGGAGTCACCTAGTGCAG”, the binding signal was 8070 fluorescence intensity (a.u.). Turning to “GCTGTGACATCCAAAATTTTACTTTTCCCCAACTAAACACCGGAGTCACCTAGTGCAG”, the binding signal was 8230 fluorescence intensity (a.u.). For the sequence “ACTAAATGCATTTTTTTTCTGAACTGCTGTTTTGTTGTATCGGAGTCACCTAGTGCAG”, the binding signal is 9340 fluorescence intensity (a.u.). Next, “CTAGCTAGCTCGCACCTTCTTCTTCGTGTTCGTTAAGCTTCGGAGTCACCTAGTGCAG”: 9690 fluorescence intensity (a.u.); “TTACTGCTACCTCCACTTCATGTTATAAGTTGTTTTACCTCGGAGTCACCTAGTGCAG”: 8580 fluorescence intensity (a.u.). Next, “TTTACCTACAGATACTATTCCTCGTGACATTTTTACTTAGCGGAGTCACCTAGTGCAG”: 9040 fluorescence intensity (a.u.).

Values taken from publication PMC7819943, “Rice protein-binding microarrays: a tool to detect cis-acting elements near promoter regions in rice”.
